According to article PMC2374977:
Results are given in words; binding and its absence hold for the method and conditions named. For some of these results: Binding seen in cells or lysates may run through a third protein. Some entries that bind do so weakly or less than the wild type. For some of these results: Where a sequence is shown, tags or fusion partners need not be part of it. One block for each substance: values may come before it.

Protein sequences, listed by entry. Tags and fused reporters are not part of them.
UniProt Q92731: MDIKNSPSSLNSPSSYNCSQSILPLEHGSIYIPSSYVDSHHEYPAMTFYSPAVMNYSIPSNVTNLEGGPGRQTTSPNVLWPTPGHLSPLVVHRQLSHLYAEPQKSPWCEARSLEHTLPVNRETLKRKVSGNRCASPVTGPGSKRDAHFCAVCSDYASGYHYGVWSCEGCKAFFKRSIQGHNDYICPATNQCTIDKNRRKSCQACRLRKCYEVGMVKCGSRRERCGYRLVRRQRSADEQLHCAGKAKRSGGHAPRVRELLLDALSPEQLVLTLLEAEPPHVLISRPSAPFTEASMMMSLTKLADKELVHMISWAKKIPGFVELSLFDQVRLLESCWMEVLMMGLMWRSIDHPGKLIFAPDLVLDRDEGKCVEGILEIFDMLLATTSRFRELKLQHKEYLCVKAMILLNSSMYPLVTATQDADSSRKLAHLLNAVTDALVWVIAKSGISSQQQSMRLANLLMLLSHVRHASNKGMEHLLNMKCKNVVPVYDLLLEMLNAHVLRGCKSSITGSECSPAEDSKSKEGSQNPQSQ
UniProt P03372: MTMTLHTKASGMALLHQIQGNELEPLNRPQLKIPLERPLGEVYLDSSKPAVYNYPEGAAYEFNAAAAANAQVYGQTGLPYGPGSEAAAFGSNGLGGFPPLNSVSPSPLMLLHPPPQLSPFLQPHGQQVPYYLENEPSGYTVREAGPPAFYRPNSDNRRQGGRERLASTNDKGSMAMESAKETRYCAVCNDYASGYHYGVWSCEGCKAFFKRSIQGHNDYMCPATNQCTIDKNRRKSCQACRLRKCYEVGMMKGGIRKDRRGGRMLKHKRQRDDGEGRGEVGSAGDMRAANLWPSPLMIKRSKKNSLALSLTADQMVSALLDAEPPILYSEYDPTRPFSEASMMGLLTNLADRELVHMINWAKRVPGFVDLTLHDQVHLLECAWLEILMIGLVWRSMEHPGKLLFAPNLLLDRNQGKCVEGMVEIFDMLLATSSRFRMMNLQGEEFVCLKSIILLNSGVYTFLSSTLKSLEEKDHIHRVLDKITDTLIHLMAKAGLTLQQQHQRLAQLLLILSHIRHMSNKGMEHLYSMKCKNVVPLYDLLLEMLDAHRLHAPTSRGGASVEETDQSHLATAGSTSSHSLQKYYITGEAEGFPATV

Assays:
[1] = target: GST-FOXO3a amino-terminal domain (amino acids 1 to 300) (UniProt O43524); assay: pull-down; GST pull-down in vitro: whole cell lysates from 293T cells incubated with GST-FOXO3a fusion proteins; IB with an antibody against ER-α or ER-β; only the target purified
[2] = target: T1, GST-FOXO3a carboxyl-terminal domain (amino acids 301 to 673) (UniProt O43524); assay: as above
T1 sequence: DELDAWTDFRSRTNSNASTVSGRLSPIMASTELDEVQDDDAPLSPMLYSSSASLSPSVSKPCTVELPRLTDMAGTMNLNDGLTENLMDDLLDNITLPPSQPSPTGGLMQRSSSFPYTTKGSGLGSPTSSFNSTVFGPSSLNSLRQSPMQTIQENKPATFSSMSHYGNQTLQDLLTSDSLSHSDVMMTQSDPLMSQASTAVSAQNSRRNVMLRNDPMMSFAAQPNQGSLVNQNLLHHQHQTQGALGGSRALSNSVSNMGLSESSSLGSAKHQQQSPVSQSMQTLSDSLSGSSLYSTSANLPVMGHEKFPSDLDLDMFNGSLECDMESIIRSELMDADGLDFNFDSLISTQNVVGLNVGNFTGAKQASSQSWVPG

HA-ER-β = HA-ER-β (UniProt Q92731); assay: co-IP; total lysates of co-transfected 293T cells, in the presence of E2; IP with anti-HA or anti-Flag, IB with the other tag's antibody, reciprocal IP done; 4°C overnight, protein A or G sepharose
[3] = target: Flag-estrogen receptor (ER)-α (UniProt P03372); assay: as above
[4] = target: endogenous estrogen receptor (ER)-β of MCF-7 cells (human (endogenous in MCF-7)) (UniProt Q92731); assay: co-IP; endogenous proteins, total lysates of MCF-7 cells with E2; IP with anti-FOXO3a, anti-ER-α or anti-ER-β, reciprocal IB
[5] = target: endogenous estrogen receptor (ER)-α of MCF-7 cells (human (endogenous in MCF-7)) (UniProt P03372); assay: as above
[6] = target: endogenous estrogen receptor (ER)-α of MCF-7 cells (human (endogenous in MCF-7)) (UniProt P03372); assay: antibody array; Hypromatrix AntibodyArray incubated with whole-cell lysates of MCF7-FO33 cells, then horseradish peroxidase-conjugated anti-HA monoclonal antibody; positive spot at the immobilised antibody against ER-α

- binding [3]: binds
Substance: HA-tagged FOXO3a, transiently expressed in 293T (from UniProt O43524 1-673)

- binding [6]: binds
Substance: hemagglutinin (HA)-tagged FOXO3a, stably expressed in MCF-7 (MCF7-FO33) (from UniProt O43524 1-673)

The next lines start with the substance.

Substance: ER-α in whole cell lysates from 293T cells (GST pull-down) (from UniProt P03372 1-595) (receptor)
- binding [1]: binds

Substance: ER-β in whole cell lysates from 293T cells (GST pull-down) (from UniProt Q92731 1-530) (receptor)
- binding [2]: binds

Substance: Flag-FOXO3a (from UniProt O43524 1-673)
- binding (HA-ER-β): binds

Substance: endogenous FOXO3a of MCF-7 cells (from UniProt O43524 1-673)
- binding [4]: binds
- binding [5]: binds
